Assay results published in doi:10.1101/2024.05.10.593562 (bioRxiv, 2024).
No constants are given. Whether binding was seen depends on the method and setting. Binding calls can cover weak binding; strength is not graded here.

Target: mutant GST-Rb379-928 (UniProt P06400)
Assay: AlphaScreen or HTRF

HDAC1-FLAG (from UniProt Q13547 1-482) (enzyme)
binding: binds
